Results: PubChem BioAssay AID330 (DTP/NCI, 2004)
The list is a part of this screen's results and no random one: it gathers tests that were run many times, whatever their T/C, doses with no T/C, and many T/C values between a quarter and a half above the control. Other doses and runs of a compound stand elsewhere. T/C gives the treated animals as a percentage of the vehicle group. Some entries give survivors of the animals treated and no T/C: the source files T/C as zero there, which appears to mark a toxic dose or a test without result, not a measured value. Some doses without a T/C left all or most animals alive at the check, yet need not have been tolerated: survival well below the control is almost never listed, so the zero probably covers shortened survival too. Counts of survivors are from the toxicity check (mostly the fifth day) where no day follows; animals may have died later. Schedules are NCI's codes, taken here to give the interval after Q, in days (D) or hours (H), and the number of doses after X. Some doses were run more than once; the results are listed from low to high. Some structures stand for samples that the source files as different forms (salt, stereo form or complex); doses refer to the form tested. For survival time, this PubChem deposit counts one and a half times the control or more as active, and values a quarter to a half above the control carry no call in these data; other NCI protocols may use other cut-offs.

Test system: P388 leukemia ip, CD2F1 mice, survival T/C
Assay: NCI In Vivo Anticancer Drug Screen. Data for tumor model P388 Leukemia (intraperitoneal) in CD2F1 (CDF1) mice
Details: T/C endpoint: median survival time, higher T/C = longer survival
[1] = dose: 50.0 mg/kg/injection, schedule: Q01DX005 (ip), vehicle: saline with Tween-80
[2] = dose: 200.0 mg/kg/injection, schedule: Q01DX009 (ip), vehicle: saline

CCOC(=O)C1C2(C(C)=O)C(C)=Nc3c(C#N)cnn3C12C(=O)OCC (stereo not drawn)
survivor count [1]: 6 of 6

CCC1=C[C@H]2CN(CCc3c([nH]c4ccccc34)[C@@](C(=O)OC)(c3cc4c(cc3OC)N(C)[C@H]3C(C(=O)NC)=C[C@]5(CC)C=CCN6CC[C@]43[C@@H]65)C2)C1
T/C (dose: 64.0 mg/kg/injection, schedule: Q01DX001 (ip), vehicle: other): 126 % of control
survivor count (dose: 128.0 mg/kg/injection, schedule: Q01DX001 (ip), vehicle: other): 1 of 3
survivor count (dose: 256.0 mg/kg/injection, schedule: Q01DX001 (ip), vehicle: other): 0 of 3

Cn1/c2cc/c1=C(\c1ccc(S(=O)(=O)O)cc1)c1ccc([n-]1)/C(c1ccc(S(=O)(=O)O)cc1)=c1/cc/c([nH]1)=C(\c1ccc(S(=O)(=O)O)cc1)c1ccc([n-]1)/C=2c1ccc(S(=O)(=O)O)cc1.O.O=S(=O)(O)C(F)(F)F.[Cu+2]
survivor count [2]: 1 of 6

O=C(Nc1ccc(C2=NCCN2)cc1)c1ccc(C(=O)Nc2ccc(C3=NCCN3)cc2)c(Cl)c1
T/C (dose: 1.56 mg/kg/injection, schedule: Q01DX009 (ip), vehicle: saline with Tween-80): 132 % of control
T/C (dose: 8.0 mg/kg/injection, schedule: Q01DX010 (ip), vehicle: water): 127 % of control
T/C (dose: 12.0 mg/kg/injection, schedule: Q01DX010 (ip), vehicle: water): 136 % of control
T/C (dose: 16.0 mg/kg/injection, schedule: Q01DX010 (ip), vehicle: water): 145 % of control
T/C (dose: 16.2 mg/kg/injection, schedule: Q04DX003 (ip), vehicle: saline): 125 % of control
T/C (dose: 27.0 mg/kg/injection, schedule: Q04DX003 (ip), vehicle: saline): 137 % of control
survivor count (dose: 75.0 mg/kg/injection, schedule: Q04DX003 (ip), vehicle: saline): 0 of 8
survivor count (dose: 125.0 mg/kg/injection, schedule: Q04DX003 (ip), vehicle: saline): 0 of 8

CCOc1ccc2nc([NH-])sc2c1.CCOc1ccc2nc([NH-])sc2c1.CCOc1ccc2nc([NH-])sc2c1.CCOc1ccc2nc([NH-])sc2c1.[Cl][Rh][Cl]
survivor count (dose: 200.0 mg/kg/injection, schedule: Q01DX001 (ip), vehicle: DMSO): 3 of 6
survivor count (dose: 400.0 mg/kg/injection, schedule: Q01DX001 (ip), vehicle: DMSO): 0 of 6

CC1(C)CC2(OC2c2ccc([N+](=O)[O-])cc2)C(=O)c2ccccc21 (stereo not drawn)
survivor count (dose: 6.25 mg/kg/injection, schedule: Q01DX009 (ip), vehicle: Klucel (hydroxypropylcellulose) (HPC)): 6 of 6
survivor count (dose: 12.5 mg/kg/injection, schedule: Q01DX009 (ip), vehicle: Klucel (hydroxypropylcellulose) (HPC)): 5 of 6 and 6 of 6
survivor count (dose: 25.0 mg/kg/injection, schedule: Q01DX009 (ip), vehicle: Klucel (hydroxypropylcellulose) (HPC)): 6 of 6
survivor count (dose: 50.0 mg/kg/injection, schedule: Q01DX009 (ip), vehicle: Klucel (hydroxypropylcellulose) (HPC)): 5 of 6 and 6 of 6
survivor count (dose: 100.0 mg/kg/injection, schedule: Q01DX009 (ip), vehicle: Klucel (hydroxypropylcellulose) (HPC)): 6 of 6
survivor count (dose: 200.0 mg/kg/injection, schedule: Q01DX009 (ip), vehicle: Klucel (hydroxypropylcellulose) (HPC)): 5 of 6 and 6 of 6

CCOC(=O)C[N+]12CCC34c5ccccc5N5C(=O)CC6OCC=C(C1)C(CC32)C6C54 (stereo not drawn)
survivor count (dose: 50.0 mg/kg/injection, schedule: Q01DX009 (ip), vehicle: saline with Tween-80): 0 of 6 and 1 of 6
survivor count (dose: 100.0 mg/kg/injection, schedule: Q01DX009 (ip), vehicle: saline with Tween-80): 0 of 6
survivor count (dose: 200.0 mg/kg/injection, schedule: Q01DX009 (ip), vehicle: saline with Tween-80): 0 of 6

C[C@]12CC[C@@H]3c4ccc(OC(=O)Cc5ccc(N(CCCl)CCCl)cc5)cc4CC[C@H]3[C@@H]1CC[C@@H]2OC(=O)Cc1ccc(N(CCCl)CCCl)cc1
T/C (dose: 400.0 mg/kg/injection, schedule: Q04DX003 (ip), vehicle: saline with Tween-80): 137 % of control

C=CC(C)(C)c1cc2cc3c(cc2oc1=O)OC1(C)CCC(C(C)(C)O)OC1C3 (stereo not drawn)
survivor count [1]: 6 of 6
survivor count (dose: 200.0 mg/kg/injection, schedule: Q01DX005 (ip), vehicle: saline with Tween-80): 0 of 6

Oc1ccc2c(c1)[C@]13CCCCC1[C@H](C2)N(Cc1ccoc1)CC3 (stereo partly drawn)
survivor count (dose: 100.0 mg/kg/injection, schedule: Q01DX009 (ip), vehicle: saline): 2 of 6
survivor count [2]: 0 of 6

CCCN(CCC)C(C)C(O)c1cc2c(c3ccccc13)CCCC2 (stereo not drawn)
survivor count (dose: 400.0 mg/kg/injection, schedule: Q01DX009 (ip), vehicle: Klucel (hydroxypropylcellulose) (HPC)): 0 of 6

CCOc1ccc(/C=N/NC(=O)c2ccccc2NC(=O)c2ccccc2Cl)cc1OC
survivor count (dose: 120.0 mg/kg/injection, schedule: Q01DX005 (ip), vehicle: Klucel (hydroxypropylcellulose) (HPC)): 6 of 6

CCN(CC)CCN=c1nc(/C=C\C=C\NN(C)C(=S)SC)c(C)nn1C
survivor count [1]: 5 of 5
survivor count (dose: 100.0 mg/kg/injection, schedule: Q01DX005 (ip), vehicle: saline with Tween-80): 5 of 5
